Experimental data taken from paper PMC11607471, “E3 Ubiquitin Ligase Ring Finger Protein 2 Alleviates Cerebral Ischemia–Reperfusion Injury by Stabilizing Mesencephalic Astrocyte‐Derived Neurotrophic Factor Through Monoubiquitination” (CNS Neuroscience & Therapeutics, 2024).
No constants are given. Whether binding was seen depends on the method and setting. In cells and extracts the contact can be indirect. Where a sequence is shown, tags or fusion partners need not be part of it.

Molecular target: T1, FLAG-MANF (UniProt P55145)
T1 sequence: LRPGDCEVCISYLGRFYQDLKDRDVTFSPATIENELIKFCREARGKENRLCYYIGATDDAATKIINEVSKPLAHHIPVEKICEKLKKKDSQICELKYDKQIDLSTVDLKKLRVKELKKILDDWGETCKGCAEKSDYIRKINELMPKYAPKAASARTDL
Test: co-IP; plasmids of RNF2 truncates and MANF co-transfected to N2a cells, 36 h; lysates on anti-FLAG M2 affinity gel; blots with anti-GFP and anti-FLAG

binding: no binding
Substance: RNF2 mutant lacking the RING-finger domain (domain or fragment)
